{"source": "paper PMC7583830", "about": "(Molecules, 2020)", "key": {"[1]": {"experiment": "general procedure: Fmoc solid-phase peptide synthesis; 2-chlorotritylchloride (2-CTC) resin, capacity 1.6 mmol/g (Iris Biotech), loaded with 30% of total capacity; HATU/HOAt/DIPEA in DMF, 5-fold excess of Fmoc amino acids", "conditions": "whole synthesis"}, "[2]": {"experiment": "peptide made by a vendor (Fmoc solid-phase peptide synthesis; 2-chlorotritylchloride (2-CTC) resin, capacity 1.6 mmol/g (Iris Biotech), loaded with 30% of total capacity; HATU/HOAt/DIPEA in DMF, 5-fold excess of Fmoc amino acids)", "conditions": "whole synthesis"}}, "note": "Where no end group is shown, it is not given here. [ ]: non-standard residue; d: D form. The star is where a group is joined. DOTA = O=C(O)CN1CCN(CC(=O)O)CCN(CC(=O)*)CCN(CC(=O)O)CC1; 1Nal = N[C@@H](Cc1cccc2ccccc12)C(=O)O; NMeNle = CCCC[C@H](NC)C(=O)O"}
{"substance": "{DOTA}-[dE]PYG", "values": [{"measurement": "final HPLC purity", "setting": "[1]", "value": 99, "unit": "%"}]}
{"substance": "{DOTA}-[dE]PYGW-OH (C-terminus assumed; SMILES O=C(O)CC[C@@H](NC(=O)CN1CCN(CC(=O)O)CCN(CC(=O)O)CCN(CC(=O)O)CC1)C(=O)N1CCC[C@H]1C(=O)N[C@@H](Cc1ccc(O)cc1)C(=O)NCC(=O)N[C@@H](Cc1c[nH]c2ccccc12)C(=O)O)", "values": [{"measurement": "final HPLC purity", "setting": "[1]", "value": 93, "unit": "%"}]}
{"substance": "{DOTA}-[dE]PYGW[NMeNle]-OH (C-terminus assumed; SMILES CCCC[C@@H](C(=O)O)N(C)C(=O)[C@H](Cc1c[nH]c2ccccc12)NC(=O)CNC(=O)[C@H](Cc1ccc(O)cc1)NC(=O)[C@@H]1CCCN1C(=O)[C@@H](CCC(=O)O)NC(=O)CN1CCN(CC(=O)O)CCN(CC(=O)O)CCN(CC(=O)O)CC1)", "values": [{"measurement": "final HPLC purity", "setting": "[1]", "value": 98, "unit": "%"}]}
{"substance": "{DOTA}-[dE]PYGW[NMeNle]D-OH (C-terminus assumed; SMILES CCCC[C@@H](C(=O)N[C@@H](CC(=O)O)C(=O)O)N(C)C(=O)[C@H](Cc1c[nH]c2ccccc12)NC(=O)CNC(=O)[C@H](Cc1ccc(O)cc1)NC(=O)[C@@H]1CCCN1C(=O)[C@@H](CCC(=O)O)NC(=O)CN1CCN(CC(=O)O)CCN(CC(=O)O)CCN(CC(=O)O)CC1)", "values": [{"measurement": "final HPLC purity", "setting": "[1]", "value": 99, "unit": "%"}]}
{"substance": "{DOTA}-[dE]PYGW[NMeNle]D[1Nal]-NH2 (SMILES CCCC[C@@H](C(=O)N[C@@H](CC(=O)O)C(=O)N[C@@H](Cc1cccc2ccccc12)C(N)=O)N(C)C(=O)[C@H](Cc1c[nH]c2ccccc12)NC(=O)CNC(=O)[C@H](Cc1ccc(O)cc1)NC(=O)[C@@H]1CCCN1C(=O)[C@@H](CCC(=O)O)NC(=O)CN1CCN(CC(=O)O)CCN(CC(=O)O)CCN(CC(=O)O)CC1)", "values": [{"measurement": "final HPLC purity", "setting": "[2]", "value": ">95", "unit": "%"}]}
{"substance": "{DOTA}-[dE]PYGW[NMeNle]D[1Nal]-OH (SMILES CCCC[C@@H](C(=O)N[C@@H](CC(=O)O)C(=O)N[C@@H](Cc1cccc2ccccc12)C(=O)O)N(C)C(=O)[C@H](Cc1c[nH]c2ccccc12)NC(=O)CNC(=O)[C@H](Cc1ccc(O)cc1)NC(=O)[C@@H]1CCCN1C(=O)[C@@H](CCC(=O)O)NC(=O)CN1CCN(CC(=O)O)CCN(CC(=O)O)CCN(CC(=O)O)CC1)", "values": [{"measurement": "final HPLC purity", "setting": "[1]", "value": 94, "unit": "%"}]}
